# Assay results

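A cell-based luminescence counterscreen in which cGMP made by soluble guanylyl cyclase after SNP addition switches on an engineered luciferase, tracking compounds that dampen it.
Compounds were tested as threefold dilution series, mostly topping out near 57.6 µM.
The value is the concentration giving a half-maximal inhibitory response; a lower number means a more potent compound.
Calls come from curve-class ranking: active compounds score 40 to 100 by curve class, class 4 is inactive, and a pre-read curve class other than 4 is scored inconclusive.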

Values are in µM.
All entries here are filed as inconclusive.
These entries are mostly ones the record files as inconclusive; other results of the assay are not listed here.
A potency from a partial, single-point or poor curve is only a rough figure.
Activity scores are not listed here.

structure,fitted potency (µM),curve
COC(=O)C1=C(C)N=C2SC=C(CC(=O)NCCC(C)C)N2C1c1ccccc1Cl (configuration not stated),48.5,"inhibitor, single point"
CC1=NS(=O)(=O)N(C)C=C1C(=O)OCc1noc(-c2ccco2)n1,19.31,"inhibitor, partial curve, poor fit"
CC(=O)N1CCC(NC[C@H]2O[C@H](Cc3cc(-c4cccc(O)c4)on3)CC[C@@H]2O)CC1,15.75,"inhibitor, partial curve"
COC(=O)c1cccc(NC(=O)CCNc2c(C)nc3cnccn23)c1,30.6,"inhibitor, single point"
Cc1cccc(C(=O)N2CCC(Oc3ccc(-c4noc(C(C)C)n4)cc3)C2)c1 (configuration not stated),43.23,"inhibitor, single point"
Cc1ccc2nc(C3CCCN(Cc4ccc(C#N)cc4)C3)[nH]c(=O)c2c1 (configuration not stated),24.31,"inhibitor, partial curve, poor fit"
O=C(N1CCN(c2cc(-c3ccc(Cl)cc3)[nH]n2)CC1)C1(c2ccccc2)CC1,30.6,"inhibitor, single point"
O=C(CCC1CCN(C(=O)c2ccccc2F)CC1)Nc1cccc(Cl)c1,21.66,"inhibitor, partial curve"
Cc1cc(CNC(=O)c2ccc(-c3ccccc3Cl)o2)n(C)n1,30.6,"inhibitor, single point"
O=C(c1cccc(F)c1)N1CCOC[C@H](Oc2ccc(C(F)(F)F)cc2)C1,39.56,"inhibitor, single point"
Cc1cccc(-c2cccc(CN)c2)c1,49.8,"inhibitor, single point"
CC(C)c1noc(-c2cn(C3CCN(C(=O)c4ccc(N(C)C)cc4)C3)nn2)n1 (configuration not stated),43.23,"inhibitor, single point"
Cc1ccc(C)c(C(=O)N2CCC3(CC2)N=C(c2ccc(Cl)cc2)NO3)c1,17.21,"inhibitor, partial curve"
COc1ccc(S(=O)(=O)N2CCc3c(C(=O)NCCc4ccccn4)cccc32)cc1,43.23,"inhibitor, single point"

The results are deposited in PubChem (AID1347051; NCATS, 2019).